Test results as given in publication PMC5980993.
No constants are given. Whether binding was seen depends on the method and setting. In cells and extracts the contact can be indirect. Some entries that bind do so weakly or less than the wild type.

Amino acid sequences for entries named in this document (tags omitted).
UniProt Q8R4B8: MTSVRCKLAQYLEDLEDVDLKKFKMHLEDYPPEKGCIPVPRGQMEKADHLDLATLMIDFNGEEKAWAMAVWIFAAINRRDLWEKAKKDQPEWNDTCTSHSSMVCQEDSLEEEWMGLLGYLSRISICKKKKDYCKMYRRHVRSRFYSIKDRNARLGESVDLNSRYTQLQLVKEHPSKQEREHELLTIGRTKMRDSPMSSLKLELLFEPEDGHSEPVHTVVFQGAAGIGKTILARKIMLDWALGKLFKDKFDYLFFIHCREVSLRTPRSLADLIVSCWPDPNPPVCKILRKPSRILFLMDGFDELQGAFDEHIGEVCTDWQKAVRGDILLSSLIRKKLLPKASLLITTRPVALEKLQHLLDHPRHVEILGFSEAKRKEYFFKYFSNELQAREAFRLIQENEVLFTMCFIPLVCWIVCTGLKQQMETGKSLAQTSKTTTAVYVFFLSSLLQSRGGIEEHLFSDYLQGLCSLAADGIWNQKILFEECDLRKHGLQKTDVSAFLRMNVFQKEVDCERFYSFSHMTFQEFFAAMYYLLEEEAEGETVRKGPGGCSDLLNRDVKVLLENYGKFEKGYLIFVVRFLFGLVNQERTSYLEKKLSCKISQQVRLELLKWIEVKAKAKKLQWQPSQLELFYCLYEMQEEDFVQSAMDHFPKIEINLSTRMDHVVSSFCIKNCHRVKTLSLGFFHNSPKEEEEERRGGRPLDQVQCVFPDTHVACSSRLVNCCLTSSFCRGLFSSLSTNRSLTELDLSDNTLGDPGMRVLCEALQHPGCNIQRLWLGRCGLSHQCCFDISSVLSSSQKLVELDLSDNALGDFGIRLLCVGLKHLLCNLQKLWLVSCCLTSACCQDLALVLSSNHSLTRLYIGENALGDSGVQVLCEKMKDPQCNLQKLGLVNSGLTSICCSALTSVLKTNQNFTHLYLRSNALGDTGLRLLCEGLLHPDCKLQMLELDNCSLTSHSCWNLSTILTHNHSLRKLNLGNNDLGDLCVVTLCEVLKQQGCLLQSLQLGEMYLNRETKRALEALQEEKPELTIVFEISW

T1: Triggering receptors expressed on myeloid cells 2 (mouse (endogenous in BMDMs and corneas of C57BL/6 mice)) (UniProt Q99NH8)
T1 sequence: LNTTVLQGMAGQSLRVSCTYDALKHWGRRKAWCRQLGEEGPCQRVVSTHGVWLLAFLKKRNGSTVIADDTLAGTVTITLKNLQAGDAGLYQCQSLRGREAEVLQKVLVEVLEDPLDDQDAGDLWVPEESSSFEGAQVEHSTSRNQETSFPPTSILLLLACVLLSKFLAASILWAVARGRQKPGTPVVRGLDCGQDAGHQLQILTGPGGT


Assays:
[1] = target: T1, Triggering receptors expressed on myeloid cells 2 (mouse (endogenous in BMDMs and corneas of C57BL/6 mice)); assay: co-IP; endogenous proteins; lysate (Pierce IP lysis buffer) of pooled uninfected and P. aeruginosa-infected corneas of WT C57BL/6 mice, 5 days after infection; anti-mouse TREM2 antibody and protein A overnight at 4°C; immunoblot with anti-TREM2, anti-NLRP3, anti-caspase-1
[2] = target: T1, Triggering receptors expressed on myeloid cells 2 (mouse (endogenous in BMDMs and corneas of C57BL/6 mice)); assay: co-IP; endogenous proteins; lysate (Pierce IP lysis buffer) of BMDMs from WT C57BL/6 mice treated with HK-PA (MOI 5, 6 h) or stimulated with nigericin; anti-mouse TREM2 antibody and protein A overnight at 4°C; immunoblot with anti-TREM2, anti-NLRP3, anti-caspase-1

Row | binding [1] | binding [2] | Molecule
1 | binds | binds | NLRP3 (from UniProt Q8R4B8 1-1033)
2 | binds | binds | caspase-1 (enzyme, UniProt P29452 1-402) MADKILRAKRKQFINSVSIGTINGLLDELLEKRVLNQEEMDKIKLANITAMDKARDLCDHVSKKGPQASQIFITYICNEDCYLAGILELQSAPSAETFVATEDSKGGHPSSSETKEEQNKEDGTFPGLTGTLKFCPLEKAQKLWKENPSEIYPIMNTTTRTRLALIICNTEFQHLSPRVGAQVDLREMKLLLEDLGYTVKVKENLTALEMVKEVKEFAACPEHKTSDSTFLVFMSHGIQEGICGTTYSNEVSDILKVDTIFQMMNTLKCPSLKDKPKVIIIQACRGEKQGVVLLKDSVRDSEEDFLTDAIFEDDGIKKAHIEKDFIAFCSSTPDNVSWRHPVRGSLFIESLIKHMKEYAWSCDLEDIFRKVRFSFEQPEFRLQMPTADRVTLTKRFYLFPGH
